These results are taken from patent US20050064558.

Amino acid sequences for entries named in this document (tags omitted). Residues count along the entry.
UniProt P40763, 2-770: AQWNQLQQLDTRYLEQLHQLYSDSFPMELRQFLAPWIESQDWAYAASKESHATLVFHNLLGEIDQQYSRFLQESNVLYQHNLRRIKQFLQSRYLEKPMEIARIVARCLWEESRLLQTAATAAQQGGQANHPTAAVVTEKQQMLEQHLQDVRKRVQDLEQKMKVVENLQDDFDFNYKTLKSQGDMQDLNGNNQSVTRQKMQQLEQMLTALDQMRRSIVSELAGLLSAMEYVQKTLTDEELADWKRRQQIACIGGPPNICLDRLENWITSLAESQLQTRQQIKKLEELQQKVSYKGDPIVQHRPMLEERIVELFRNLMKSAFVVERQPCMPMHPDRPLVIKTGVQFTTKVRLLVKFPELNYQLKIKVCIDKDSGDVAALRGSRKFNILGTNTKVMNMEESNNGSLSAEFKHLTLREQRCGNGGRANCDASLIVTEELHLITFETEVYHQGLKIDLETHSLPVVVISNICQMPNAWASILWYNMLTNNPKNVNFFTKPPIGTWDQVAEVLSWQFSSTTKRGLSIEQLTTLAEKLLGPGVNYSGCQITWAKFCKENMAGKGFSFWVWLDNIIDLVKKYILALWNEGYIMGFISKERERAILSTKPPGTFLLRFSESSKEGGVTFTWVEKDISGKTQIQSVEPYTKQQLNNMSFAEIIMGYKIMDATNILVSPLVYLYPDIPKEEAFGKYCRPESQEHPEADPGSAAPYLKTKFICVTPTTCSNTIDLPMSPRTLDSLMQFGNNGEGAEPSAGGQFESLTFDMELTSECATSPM

Data set [1] addresses STAT-3 (Homo sapiens) (UniProt P40763). Kind of data set: EMSA. The note with it: HPMC nuclear extract; both sIL-6R isoforms with IL-6 activate STAT-3; no supershift; protein in an extract; label: 32P (dTTP Klenow fill-in). For orientation: Mobility shift assays separate free from complexed probe on a gel.
Data set [2] relates to C/EBP (NF-IL-6 + family member not distinguished) (Homo sapiens). Briefly: EMSA. The note with it: HPMC nuclear extract; DS-sIL-6R + IL-6 enhances binding; family member not identified; protein in an extract; label: 32P (dTTP Klenow fill-in).

The exact form of at least one protein or probe is not confirmed. Results from cells or extracts need not show a direct contact.

For “CGACATTTCCCGTAAATCG / CGACGATTTACGGGAAATG [STAT-3 SIE-m67 oligonucleotide]”, in data set [1], the binding result is recorded as “binds”.

Turning to “GACGTCACATTGCACAATCTTAA / TATTAAGATTGTGCAATGTGACG [C/EBP consensus oligonucleotide]”, the binding result in data set [2] is listed as “binds”.
